Test results: PubChem BioAssay AID2685 (National Center for Advancing Translational Sciences (NCATS), 2010)
Some of the results follow. Shown are side measurements of this screen, not its main read-out; they come without a call. The list favours compounds with an active or inconclusive main result. The note in brackets gives the kind of curve behind each potency; many fits are weak.

Assay: qHTS Assay for Lipid Storage Modulators in Drosophila S3 Cells;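 for cell number change: cells counted by Cell Tracker Red CMTPX staining in the red channel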
Conditions: BODIPY lipid droplet fluorescence, 18-24 h; for cell number change: measured here: cell count max response, cells fed with added oleic acid
Method in brief: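 Drosophila S3 cells loaded with oleic acid (400 uM, as added) and compounds at several concentrations; lipid droplets imaged by 488-nm laser-scanning cytometry, 500–530 nm intensity and object ratio to cell channel. Percent activity normalized to 20 uM Triacsin C.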

[1] = measured here: cell number channel AC50, cells fed with added oleic acid
[2] = measured here: lipid fluorescence (Fed channel) AC50, cells fed with added oleic acid

| SMILES | cell number change | AC50 [1] | AC50 [2] |
| --- | --- | --- | --- |
| O=C(CCC(=O)c1ccc(Br)cc1)Nc1cccc(C(F)(F)F)c1 | -49% | 23.1 µM [falling, single point] | 23.1 µM [falling, single point] |
| CC(C)Cn1nc(C(=O)Nc2cccc(S(=O)(=O)N3CCCC3)c2)c2ccccc2c1=O | 0.63% |  | 3.66 µM [rising, single point] |
| CCCCn1c(SCC(=O)NC2CCS(=O)(=O)C2)nc2cc(S(N)(=O)=O)ccc21 (configuration not stated) | 9.09% |  |  |
| CCOC(=O)CC(NC(=O)c1ccco1)c1ccccc1Cl (configuration not stated) | -20.3% |  | 32.6 µM [falling, single point] |
| Cc1ccc(-n2nnc3c(SCC(=O)NCC4CCCO4)ncnc32)cc1 (configuration not stated) | 32.8% | 29.1 µM [rising, single point] | 0.58 µM [falling, single point] |
| Nc1nc(SCC(=O)Nc2ccccc2Sc2ccccc2)n[nH]1 |  | 0.231 µM [rising, full curve, poor fit] |  |
| O=C(/C=C/c1ccc(F)cc1)Nc1cccc(S(=O)(=O)Nc2cccc(C(F)(F)F)c2)c1 | -30.8% | 16.4 µM [falling, single point] | 29.1 µM [falling, single point] |
| C(=N\N1CCN(c2ccccn2)CC1)/C1=C(N2CCOCC2)C(=C/c2ccccc2)/CC1 | -25.9% |  | 6.51 µM [falling, full curve, poor fit] |
| Cc1ccc(C)c(N2CCN(C(=S)Nc3ccc4nc(N5CCN(C)CC5)cc(C)c4c3)CC2)c1 | -31% | 4.11 µM [falling, full curve] | 3.66 µM [falling, full curve, poor fit] |
| Cc1ccc(C[n+]2cccc(-c3ccccc3)c2)c(C)c1 | -0.201% |  | 18.4 µM [falling, single point] |
| Cc1nnc(NC(=O)CSc2nc(C(C)C)nc3sc(C)c(C)c23)s1 | -5.75% |  | 32.6 µM [falling, single point] |
| CC(C)C/C=C1\CCc2c([nH]c3ccccc23)C1=O | 5.04% |  | 29.1 µM [rising, single point] |
| O=C(c1cccc(Cl)c1)N1CCN(CCCc2ccccc2)CC1 | -0.699% |  | 0.00461 µM [rising, full curve, poor fit] |
| O=C(c1cc(-c2ccc(Cl)c(Cl)c2)on1)N1CCCC1 | -40.4% | 29.1 µM [falling, single point] |  |
| CN(CC(=O)Nc1ccc(Cl)c(C(F)(F)F)c1)C(=O)CCNC(=O)c1ccco1 | 100% | 4.11 µM [rising, partial curve] |  |
| O=[N+]([O-])/C=C/c1cn(Cc2ccccc2)c2ccccc12 |  |  | 29.1 µM [falling, single point] |
| Cc1cc(C(=O)CSc2nc(N)cc(N)n2)c(C)n1-c1cccc(F)c1 | 2.04% |  | 2.31 µM [rising, single point] |
| N#Cc1c(NC(=O)c2ccc(Cn3cc(Br)cn3)o2)sc2c1CCCCCC2 |  |  | 29.1 µM [falling, partial curve] |
| O=C1c2ccccc2C(=O)N1CCN1CCCCC1 | 10.7% |  | 23.1 µM [falling, single point] |

| SMILES | cell number change | AC50 [1] | AC50 [2] |
| --- | --- | --- | --- |
| CNC(=O)c1c(NC(=O)c2ccc(S(=O)(=O)N3CCCCC3)cc2)sc2c1CCN(C(C)C)C2 | -40.1% | 20.6 µM [falling, partial curve, poor fit] | 6.51 µM [falling, single point] |
| CCOc1ccc(OCC)c(NC(=O)CSc2nc3c(c(=O)n(C)c(=O)n3C)n2C)c1 |  |  | 0.259 µM [rising, full curve, poor fit] |
| COc1ccc(C(=O)C2CCCN(Cc3c(F)ccc(F)c3F)C2)c(OC)c1 (configuration not stated) | -34.4% | 9.2 µM [falling, partial curve, poor fit] |  |
| CCOC(=O)Cn1nc(NC(=O)COc2ccc(F)cc2)cc1C | 6.35% |  |  |
| CCc1ccc(NC(=O)COC(=O)CCc2nc3cc(S(=O)(=O)N(CC)CC)ccc3n2C)cc1 | 11.2% |  | 6.51 µM [rising, partial curve, poor fit] |
| CC(=O)NC1C(OC(=O)/C=C/c2ccccc2)OC(COC(C)=O)C(OC(C)=O)C1OC(C)=O (configuration not stated) | 4.72% |  | 6.51 µM [rising, single point] |
| CC(C)CN(C(=O)c1ccc(C(F)(F)F)cc1)c1c(N)n(CC(C)C)c(=O)[nH]c1=O | 2.08% |  |  |
| COCc1c(C(=O)N/N=C/c2ccncc2)nnn1-c1nonc1N | 13.9% |  |  |
| COC(=O)c1ccccc1NC(=O)C1CCCN(S(=O)(=O)c2ccccc2)C1 (configuration not stated) | -9.38% |  | 0.00461 µM [rising, full curve, poor fit] |
| CCOC(=O)CN(C(=O)CSc1nnc2c(n1)[nH]c1ccccc12)c1ccccc1 | -92.9% | 2.91 µM [falling, full curve] | 5.8 µM [falling, full curve] |
| Cc1nn2c(N3CCCC3)c3c(nc2c1-c1ccccc1)CCC3 | 11.8% |  | 6.51 µM [rising, single point] |
| CCCCCn1c(CN2CC(C)OC(C)C2)nc2c1c(=O)n(C)c(=O)n2C (configuration not stated) | 61.8% | 29.1 µM [rising, single point] | 0.731 µM [rising, single point] |
| CCOc1cc(CNCC(C)C)cc(Cl)c1OCc1ccccc1 | 24.8% |  | 7.31 µM [rising, partial curve] |
| Cc1cccc(Oc2ccc(NC(=O)C3=CC=CN4CCS(=O)(=O)N=C34)cc2)c1 | 26.8% |  | 0.0326 µM [rising, full curve, poor fit] |
| Cc1ccc(Oc2ccccc2NC(=O)CSCC(=O)Nc2cc(C)on2)cc1 | 3.72% |  | 18.4 µM [falling, single point] |
| CCC1(CC)NC(=O)N(CC(=O)OCC(=O)c2cc(C)c(C)cc2C)C1=O | 52.6% | 18.4 µM [rising, single point] |  |
| COc1ccccc1OCC(=O)Nc1ccccc1C(=O)NC1CC1 |  |  | 0.13 µM [rising, full curve] |
| Cc1ccc(C(=O)/C=C/c2ccco2)c(O)c1 | -30.6% | 32.6 µM [falling, single point] | 32.6 µM [falling, single point] |
| O=[N+]([O-])c1cc([N+](=O)[O-])c(Oc2ccc(F)cc2)cc1NN1CCCCC1 | 41.1% |  |  |

| SMILES | cell number change | AC50 [1] | AC50 [2] |
| --- | --- | --- | --- |
| Cc1ccc(OCC(=O)Nc2ccc(N3CCN(C(=O)c4ccc(C)cc4)CC3)cc2)cc1 | 14.2% |  | 18.4 µM [rising, partial curve, poor fit] |
| Fc1ccc(-c2noc(C3CCN(Cc4cccnc4)CC3)n2)cc1 | -1.56% | 1.84 µM [rising, partial curve, poor fit] | 0.259 µM [rising, full curve, poor fit] |
| COc1cccc2c(=O)n(CC(=O)Nc3ccccc3)ccc12 |  |  | 0.13 µM [falling, full curve] |
| COc1ccc(-n2nc(C(=O)NCC(=O)N3CCC(C)CC3)c3ccccc3c2=O)c(OC)c1 | 17.6% |  | 29.1 µM [rising, single point] |
| Cc1cccc(OC(=O)c2ccncc2)c1C | -3.42% | 3.66 µM [falling, single point] |  |
| Cc1ccc(S(=O)(=O)Nc2cc(S(=O)(=O)N3CCOCC3)ccc2NCC2CCCO2)cc1 (configuration not stated) | 16.4% |  | 7.31 µM [rising, single point] |
| Cc1cccc(-c2nnc(SCC(=O)N3c4ccccc4CCc4ccccc43)n2C)c1 | 24.8% | 0.82 µM [rising, full curve, poor fit] | 3.66 µM [rising, partial curve] |
| COc1ccccc1[C@@]1(C)ON(c2ccccc2C(F)(F)F)C1=O | -42.5% | 0.82 µM [falling, full curve] | 1.03 µM [falling, full curve] |
| COc1ccc(OCC(=O)N/N=c2\oc3c(OC)cccc3cc2C(N)=O)cc1 | 2.39% |  | 0.0206 µM [falling, full curve, poor fit] |
| O=C(CSc1nnc(-c2ccncc2)o1)Nc1cccc(F)c1 | -4.73% |  | 23.1 µM [rising, partial curve, poor fit] |
| CCn1c2ccccc2c2cc(NC(=O)COC(=O)c3ccccc3F)ccc21 | -10.1% | 6.51 µM [falling, single point] |  |
| CC(C)(C)c1cc(NC(=O)CCl)n(-c2ccccc2)n1 | -1.59% |  | 14.6 µM [falling, partial curve, poor fit] |
| O=C(NCc1ccccn1)c1cccc(NS(=O)(=O)c2cccc(Cl)c2)c1 | 43% | 20.6 µM [rising, single point] | 20.6 µM [rising, single point] |
| Cc1nc(C)c(C(=O)NCc2ccccc2Cl)o1 |  |  | 25.9 µM [falling, partial curve, poor fit] |
| CCCCC(=O)NC(=S)Nc1cc(C(=O)O)ccc1OC | 1.59% |  | 2.91 µM [falling, partial curve] |
| COc1cc(CNCCN2CCOCC2)ccc1OCc1ccc(Cl)cc1 | 5.51% |  | 0.58 µM [falling, single point] |
| Cc1cccc(CCNC(=O)C2CCCN(c3cnccn3)C2)c1 (configuration not stated) | 12.8% |  |  |
| CC(=O)c1ccc(NC(=O)CN2CCN(c3ccccc3)CC2)cc1 | 11.2% |  | 14.6 µM [rising, partial curve] |
| COC(=O)c1ccccc1CSc1nsc(C)c1C#N |  |  | 11.6 µM [falling, partial curve] |

Among those listed so far, these have a nitro group on carbon.

| SMILES | cell number change | AC50 [1] | AC50 [2] |
| --- | --- | --- | --- |
| O=[N+]([O-])/C=C/c1cn(Cc2ccccc2)c2ccccc12 |  |  | 29.1 µM [falling, single point] |
| O=[N+]([O-])c1cc([N+](=O)[O-])c(Oc2ccc(F)cc2)cc1NN1CCCCC1 | 41.1% |  |  |
